Values from PubChem BioAssay AID1259308 (NCATS, 2017)
Purpose: 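Candidate targets for better recombinant protein yield in mammalian cells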 (primary screen). Cell system: human HEK293 embryonic kidney cells stably expressing firefly luciferase (HEK-CMV-Luc2-Hygro). Reagent: single siRNA against human genes, 0.8 pmol siRNA per well. Time to read-out: 72 h. Read-out: 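Luciferase light (ONE-Glo) measured on one replicate plate set and viability (CellTiter-Glo) on the other, scaled to a negative control siRNA, with robust z-scores and luciferase per cell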. Reading the numbers: total luciferase, z-score and total luciferase, % of control: higher = more reporter protein produced; luciferase per cell, z-score: higher = more reporter output per viable cell; viable cells, % of control: higher = more viable cells. Rule for the call: 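Active when the median/MAD z-score for overall luciferase is greater than 3; a gene was taken forward for validation with new siRNAs if at least two of its three siRNAs passed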. Calls: active = raised luciferase; inactive = no rise.
Shown is one part, drawn at random, of about 59,000 reagents. In the full data, about 1,510 (2.6%) were called active. 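Calls use total luciferase alone and ignore viability, so some active siRNAs may act by altering cell number.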 The numbers tell different reagents against one gene apart. No sequences are given here.

| gene | reagent | total luciferase, z-score | total luciferase, % of control | luciferase per cell, z-score | viable cells, % of control | Call |
| --- | --- | --- | --- | --- | --- | --- |
| CROCCP3 | 1 | -2.51 | 32 | -1.51 | 53.2 | inactive |
| CROCCP3 | 2 | 0.222 | 86.3 | 0.732 | 79.5 | inactive |
| CROCCP3 | 3 | 1.6 | 114 | 0.978 | 98.2 | inactive |
| MLLT11 | 1 | 0.273 | 87.3 | -0.151 | 102 | inactive |
| MLLT11 | 2 | -0.159 | 78.7 | 0.643 | 74.3 | inactive |
| MLLT11 | 3 | 0.326 | 88.4 | 0.0867 | 96.5 | inactive |
| RRAS2 | 1 | 1.34 | 109 | 2.65 | 60.4 | inactive |
| RRAS2 | 2 | 0.449 | 90.8 | 0.519 | 88.5 | inactive |
| RRAS2 | 3 | -1.11 | 59.8 | -0.548 | 77.2 | inactive |
| FBLN5 | 1 | 0.998 | 102 | 1.69 | 72.9 | inactive |
| FBLN5 | 2 | -0.276 | 76.4 | 0.0568 | 84.1 | inactive |
| FBLN5 | 3 | -0.825 | 65.5 | -0.861 | 91.8 | inactive |
| TRPM4 | 1 | 0.674 | 95.3 | 0.0732 | 104 | inactive |
| TRPM4 | 2 | 0.538 | 92.6 | 0.627 | 87.7 | inactive |
| TRPM4 | 3 | 2.68 | 135 | 1.42 | 104 | inactive |
| SPATA41 | 1 | -0.734 | 67.3 | 0.506 | 65.8 | inactive |
| SPATA41 | 2 | -0.206 | 77.8 | -0.24 | 92.6 | inactive |
| SPATA41 | 3 | -1.18 | 58.5 | -2.1 | 114 | inactive |
| R3HCC1L | 1 | 0.824 | 98.3 | 1.39 | 76.1 | inactive |
| R3HCC1L | 2 | 0.607 | 94 | 0.29 | 97.3 | inactive |
| R3HCC1L | 3 | 0.0476 | 82.8 | 0.42 | 82.9 | inactive |
| HAPLN3 | 1 | -3.31 | 16.1 | -4.07 | 52.5 | inactive |
| HAPLN3 | 2 | -0.606 | 69.8 | -0.806 | 96.5 | inactive |
| HAPLN3 | 3 | -0.123 | 79.4 | -0.361 | 97.6 | inactive |
| TEKT1 | 1 | -0.784 | 66.3 | -1.3 | 104 | inactive |
| TEKT1 | 2 | -0.121 | 79.5 | -0.352 | 97.4 | inactive |
| TEKT1 | 3 | 0.00752 | 82 | 0.385 | 82.8 | inactive |
| ANXA1 | 1 | 0.671 | 95.2 | 0.715 | 88.2 | inactive |
| ANXA1 | 2 | 0.518 | 92.2 | 0.799 | 83.5 | inactive |
| ANXA1 | 3 | -0.531 | 71.3 | -1.03 | 105 | inactive |
| OR2A5 | 1 | -0.253 | 76.9 | -0.676 | 103 | inactive |
| OR2A5 | 2 | -0.665 | 68.7 | -0.308 | 83.2 | inactive |
| OR2A5 | 3 | -0.107 | 79.8 | -0.0431 | 90.1 | inactive |
| CKMT1B | 1 | -0.594 | 70.1 | -0.837 | 97.6 | inactive |
| CKMT1B | 2 | -0.127 | 79.4 | -0.148 | 92.2 | inactive |
| CKMT1B | 3 | 0.436 | 90.6 | 0.0367 | 100 | inactive |
| SLC26A4 | 1 | 0.954 | 101 | 0.44 | 100 | inactive |
| SLC26A4 | 2 | 1.5 | 112 | 0.754 | 102 | inactive |
| SLC26A4 | 3 | -0.0149 | 81.6 | -0.29 | 98.4 | inactive |
| PLPPR1 | 1 | 1.08 | 103 | 1.94 | 69.3 | inactive |
| PLPPR1 | 2 | 0.77 | 97.2 | 0.7 | 90.3 | inactive |
| PLPPR1 | 3 | -1.11 | 59.7 | -1.1 | 89.1 | inactive |
| CYP24A1 | 1 | 0.239 | 86.6 | 0.0696 | 95.1 | inactive |
| CYP24A1 | 2 | 1.52 | 112 | 1.32 | 88.6 | inactive |
| CYP24A1 | 3 | -0.961 | 62.8 | -1.41 | 102 | inactive |
| GPRC5A | 1 | -0.206 | 77.8 | 0.718 | 71.9 | inactive |
| GPRC5A | 2 | -1.19 | 58.1 | -1.41 | 94.2 | inactive |
| GPRC5A | 3 | -0.478 | 72.4 | -0.583 | 94.3 | inactive |
| GSKIP | 1 | -0.119 | 79.5 | 0.735 | 73.2 | inactive |
| GSKIP | 2 | 0.854 | 98.9 | 0.423 | 98.8 | inactive |
| GSKIP | 3 | -1.17 | 58.7 | -0.953 | 84.3 | inactive |
| MED1 | 1 | -0.755 | 66.9 | -0.784 | 91.9 | inactive |
| MED1 | 2 | -0.173 | 78.4 | -0.473 | 99.3 | inactive |
| MED1 | 3 | -2.02 | 41.8 | -1.76 | 74.1 | inactive |
| RERGL | 1 | 0.171 | 85.3 | -0.123 | 98.4 | inactive |
| RERGL | 2 | -0.173 | 78.5 | 0.186 | 83.5 | inactive |
| RERGL | 3 | -0.0121 | 81.6 | -0.0572 | 92.6 | inactive |
